Starred links: 1 amine or outer side, 2 acyl side, 3 side chain; linkers in the order of their positions; H or OH if unused. Positions of bridges follow the written chain, without caps; N, C: chain ends. Non-standard residues stand in square brackets, D forms with d. Residues, ends and D or L forms follow the SMILES beside them. Chains are numbered I, II in the order given. Hexamethylenediamine = C(CCCN[*:2])CCN[*:1]; Dip = N[C@H](C(=O)O)C(c1ccccc1)c1ccccc1; Chg = N[C@H](C(=O)O)C1CCCCC1; NMeA = CN[C@@H](C)C(=O)O
Test system: 5′- and 3′-UTRs of human utrophin
Assay: Screening assay: C2C12 stable reporter line, CMV-driven luciferase flanked by utrophin 5′ and 3′ UTRs
Assay type: cell-based
Settings: for H2LPS: Curve Shape Score*(Upper limit-Lower Limit)*EC50score*Fold Diff Score, unitless; for Curve shape score (0/1): success of dr4p1 4-parameter fit; for Cluster: clustering of dose-response profiles (5 nM to 10 μM), complete linkage, Euclidean distance
Protocol: The construct for the HTS assay was generated by cloning the 5′- and 3′-UTRs of human utrophin into pGL4:50-hygro (Promega, Madison, Wis.) at the 5′ and 3′ of the luciferase coding sequence and has been described previously by Moorwood. […] For the counterscreening assay, the pGL4:50-hygro plasmid was used alone. Low passage C2C12 cells obtained from ATCC were transfected with either constructs, stably selected with 500 μg/mL hygromycin and subcloned using two rounds of serial dilutions to isolate single cell-derived colonies in a 96 wells plate format. […] The selected clones were cultured in presence of 100 μg/mL hygromycin B and were transferred to the HTS Facility at the University of Pennsylvania for implementation into a 384-wells format suitable for HTS.
The construct for generating the screening C2C12 cell line carrying the 5′ and 3′UTR of the human utrophin gene is described by Moorwood. […] Some compounds could increase light emission independently from the 5′ and 3′UTR regions, i.e., by activating the CMV promoter or increasing overall mRNA synthesis. Therefore, in order to distinguish such compounds, a counterscreening cell line stably expressing only the CMV-driven luciferase gene was generated (FIG. 1A). To determine optimal conditions for the implementation in a 384-wells high-throughput format, evaluated were DMSO tolerance, optimal cell density and incubation time (FIG. 5A-5C).
A first criterion for evaluating the performance of the selected hits was whether their activity was dose-dependent. After performing a dose-response analysis (5 nM to 10 μM) of each hit in the screening cell line, a clustering approach was applied (complete linkage with Euclidean distance measurement) to highlight similarities between compounds profiles. […] By modeling each dose-response trace with a 4-parameter logistic model applied to the Z— score values (FIG. 2B), the EC50 of each molecule was calculated.
Cells were allowed to attach overnight at 37° C., 5% CO2 in a humidified chamber. […] Compounds were added to a final concentration of 1 μM and 100 nM in 0.2% DMSO. Columns 1 and 23 were treated with 0.2% DMSO (negative control). Columns 2 and 24 were treated with 100 nM Panobinostat (positive control). Cells were incubated for 24 hours at 37° C., 5% CO2. […] Luminescence was measured on an EnVisionXcite Multilabel Plate Reader (PerkinElmer), using ultrasensitive luminescence measurement technology.

Compound | Fold diff score (0 to 2) | H2LPS | Curve shape score (0/1) | Cluster
O=C1Cc2c([nH]c3ccc(Br)cc23)-c2ccccc2N1 [Kenpaullone] | 1 (1 if fold difference>2) | 51.67 | 1 | –
COc1cc(NC(=O)c2ccccn2)ccc1Cl [VU 0361737] | 0 (0 if fold difference<2) | 0 | 0 | –
Abexinostat [PCI-24781] | 2 (2 if fold difference>10) | 176.72 | 1 | 4 (Clusters 1 and 4 included compounds with high potency and EC50 on the order of 10 nM and 100-700 nM respectively)
Cc1nc2ccc(-n3ncc(C(=O)c4cc5ccccc5[nH]4)c3N)cc2[nH]1 [CH5183284] | 0 (0 if fold difference<2) | 0 | 0 | –
CCN(CC)Cc1ccc2cc(COC(=O)Nc3ccc(C(=O)NO)cc3)ccc2c1 [Givinostat] | 2 (2 if fold difference>10) | 186.4 | 1 | 4 (Clusters 1 and 4 included compounds with high potency and EC50 on the order of 10 nM and 100-700 nM respectively)
CC(C)[C@H](C(=O)Nc1ccc(C(=O)NO)cc1)c1ccccc1 [AR-42] | 2 (2 if fold difference>10) | 239.74 | 1 | 4 (Clusters 1 and 4 included compounds with high potency and EC50 on the order of 10 nM and 100-700 nM respectively)
O=C1Nc2cc(Br)ccc2/C1=C1/Nc2ccccc2/C1=N\O [BIO] | – | 24 | 1 | –
CN(C)c1ccc(C(=O)NCCCCCCC(=O)NO)cc1 [M344] | 1 (1 if fold difference>2) | 74.15 | 1 | –
Cn1cc(CNCC2CCN(c3ncc(C(=O)NO)cn3)CC2)c2ccccc21 [Quisinostat] | 0 (0 if fold difference<2) | 0 | 0 | –
COc1ccc(-c2nc(N3CCOCC3)c3sc(CN(C)c4ncc(C(=O)NO)cn4)cc3n2)cn1 [CUDC-907] | 0 (0 if fold difference<2) | 0 | 1 | –
O=C(/C=C/c1cccc(S(=O)(=O)Nc2ccccc2)c1)NO [Belinostat] | 2 (2 if fold difference>10) | 173.65 | 1 | 4 (Clusters 1 and 4 included compounds with high potency and EC50 on the order of 10 nM and 100-700 nM respectively)
O=C(Nc1ccc([N+](=O)[O-])cc1Cl)c1cc(Cl)ccc1O [Niclosamide] | 0 (0 if fold difference<2) | 0 | 0 | –
C#Cc1cccc(Nc2ncnc3cc(OC)c(OCCCCCCC(=O)NO)cc23)c1 [CUDC-101] | 2 (2 if fold difference>10) | 68.68 | 1 | –
CC(/C=C/C(=O)NO)=C\[C@@H](C)C(=O)c1ccc(N(C)C)cc1 [Trichostatin A] | 2 (2 if fold difference>10) | 276.27 | 1 | –
C=C(C)CSc1nnc2c(n1)[nH]c1ccccc12 [Rbin-1] | 0 (0 if fold difference<2) | 0 | 0 | –
Cc1cc(O)c(-c2ccc([C@@H](C)CN)cc2)c2c1[nH]c(=O)c1sccc12.Cl [OTS514 hydrochloride] | 0 (0 if fold difference<2) | 0 | 0 | –
CC(=O)O/N=C1/C(=C2/C(=O)Nc3cc(Br)ccc32)Nc2ccccc21 [BIO-acetoxime] | 0 (0 if fold difference<2) | 0 | 1 | –
O=C(/C=C/c1ccc(CN(CCO)CCc2c[nH]c3ccccc23)cc1)NO [LAQ824, Dacinostat] | 0 (0 if fold difference<2) | 0 | 0 | –
CN[C@@H](C)C(=O)N[C@H](C(=O)N1CCC[C@H]1C(=O)N[C@H](C(=O)NCCCCCCNC(=O)[C@@H](NC(=O)[C@@H]1CCCN1C(=O)[C@@H](NC(=O)[C@H](C)NC)C1CCCCC1)C(c1ccccc1)c1ccccc1)C(c1ccccc1)c1ccccc1)C1CCCCC1 [BV-6] (I: H-[NMeA][Chg]P[Dip] / II: H-[NMeA][Chg]P[Dip]; linker I:C-II:C via Hexamethylenediamine) | 2 (2 if fold difference>10) | 42.02 | 1 | –
CC(C)Oc1ccc2c(=O)c(-c3ccccc3)coc2c1 [ipriflavone] | 0 (0 if fold difference<2) | 0 | 0 | –
Panobinostat | 1 (1 if fold difference>2) | 88.24 | 1 | –
CCCCc1nc2cc(/C=C/C(=O)NO)ccc2n1CCN(CC)CC [Pracinostat] | 2 (2 if fold difference>10) | 225.49 | 1 | 4 (Clusters 1 and 4 included compounds with high potency and EC50 on the order of 10 nM and 100-700 nM respectively)
Cc1cc(C)cc(C(=O)NOCCCCCC(=O)NO)c1 [LMK-235] | 2 (2 if fold difference>10) | 173.61 | 1 | 4 (Clusters 1 and 4 included compounds with high potency and EC50 on the order of 10 nM and 100-700 nM respectively)
O=C(CCCCCN1C(=O)c2cccc3cccc(c23)C1=O)NO [Scriptaid] | 2 (2 if fold difference>10) | 124.01 | 1 | –

From patent US20230076977A1, “UTROPHIN UPREGULATION COMPOUNDS FOR DUCHENNE MUSCULAR DYSTROPHY THERAPY” (THE TRUSTEES OF THE UNIVERSITY OF PENNSYLVANIA, priority 2020, published 2023)
